# Measurements as given in patent publication US8969612B2, “Low interfacial tension surfactants for petroleum applications” (Soane Energy, LLC, priority 2009, dated 2015).
# Legend:
# [1] = Surfactant stability: emulsion phase volume over time (Example 15); type: physicochemical; conditions: 2 mL heavy oil + 2 mL 1% surfactant solution
# [2] = Surfactant switchability by pH variation: emulsion phase volume (Example 16); type: physicochemical
# [3] = no acid (pH 9 test surfactant, pH 6 Tergitol)
substance,measurement,setting,value
2-(nonen-1-yl)succinic acid mono (2-cyclohexylethyl) ester [Example 3],"% mixture volume occupied by emulsion, 5 min",[1]; 5 min after mixing,93%
same,"% mixture volume occupied by emulsion, 30 min",[1]; 30 min after mixing,79%
same,"% mixture volume occupied by emulsion, 60 min",[1]; 60 min after mixing,64%
same,"% mixture volume occupied by emulsion, 1 day",[1]; 1 day after mixing,36%
same,"% mixture volume occupied by emulsion, 5 min","[2]; acid added (HCl 10M), pH 1",0%
same,"% mixture volume occupied by emulsion, 30 min","[2]; acid added (HCl 10M), pH 1",0%
same,"% mixture volume occupied by emulsion, 60 min","[2]; acid added (HCl 10M), pH 1",0%
same,"% mixture volume occupied by emulsion, 1 day","[2]; acid added (HCl 10M), pH 1",0%
same,"% mixture volume occupied by emulsion, 5 min",[2]; [3],100%
same,"% mixture volume occupied by emulsion, 30 min",[2]; [3],99%
same,"% mixture volume occupied by emulsion, 60 min",[2]; [3],93%
same,"% mixture volume occupied by emulsion, 1 day",[2]; [3],43%
